Experimental data from article PMC3044721.
Results are given in words; binding and its absence hold for the method and conditions named. Binding seen in cells or lysates may run through a third protein. Some results given as binding are weak or reduced against the parent protein; the word gives no strength.

Sequences of proteins named here, by UniProt entry; tags and fusion partners are left off.
UniProt P03427: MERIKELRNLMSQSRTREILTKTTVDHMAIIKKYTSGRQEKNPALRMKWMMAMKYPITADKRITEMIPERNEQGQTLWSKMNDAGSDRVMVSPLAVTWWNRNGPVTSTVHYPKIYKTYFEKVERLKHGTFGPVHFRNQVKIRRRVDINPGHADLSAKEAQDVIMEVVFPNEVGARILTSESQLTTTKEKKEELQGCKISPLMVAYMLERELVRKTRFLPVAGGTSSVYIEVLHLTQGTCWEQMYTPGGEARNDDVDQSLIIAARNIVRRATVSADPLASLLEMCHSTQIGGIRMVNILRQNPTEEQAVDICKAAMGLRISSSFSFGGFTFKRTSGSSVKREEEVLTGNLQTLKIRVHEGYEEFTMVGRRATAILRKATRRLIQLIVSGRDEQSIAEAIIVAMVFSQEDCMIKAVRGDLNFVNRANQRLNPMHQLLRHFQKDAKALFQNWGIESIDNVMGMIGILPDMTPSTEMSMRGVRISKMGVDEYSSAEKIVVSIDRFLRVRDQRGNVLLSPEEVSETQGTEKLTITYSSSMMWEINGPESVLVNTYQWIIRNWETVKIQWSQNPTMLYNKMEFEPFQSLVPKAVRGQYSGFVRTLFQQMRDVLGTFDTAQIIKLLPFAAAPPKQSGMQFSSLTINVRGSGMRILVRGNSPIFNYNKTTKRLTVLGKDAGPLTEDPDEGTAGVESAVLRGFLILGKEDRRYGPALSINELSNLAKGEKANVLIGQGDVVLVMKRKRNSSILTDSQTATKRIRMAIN
UniProt P03430: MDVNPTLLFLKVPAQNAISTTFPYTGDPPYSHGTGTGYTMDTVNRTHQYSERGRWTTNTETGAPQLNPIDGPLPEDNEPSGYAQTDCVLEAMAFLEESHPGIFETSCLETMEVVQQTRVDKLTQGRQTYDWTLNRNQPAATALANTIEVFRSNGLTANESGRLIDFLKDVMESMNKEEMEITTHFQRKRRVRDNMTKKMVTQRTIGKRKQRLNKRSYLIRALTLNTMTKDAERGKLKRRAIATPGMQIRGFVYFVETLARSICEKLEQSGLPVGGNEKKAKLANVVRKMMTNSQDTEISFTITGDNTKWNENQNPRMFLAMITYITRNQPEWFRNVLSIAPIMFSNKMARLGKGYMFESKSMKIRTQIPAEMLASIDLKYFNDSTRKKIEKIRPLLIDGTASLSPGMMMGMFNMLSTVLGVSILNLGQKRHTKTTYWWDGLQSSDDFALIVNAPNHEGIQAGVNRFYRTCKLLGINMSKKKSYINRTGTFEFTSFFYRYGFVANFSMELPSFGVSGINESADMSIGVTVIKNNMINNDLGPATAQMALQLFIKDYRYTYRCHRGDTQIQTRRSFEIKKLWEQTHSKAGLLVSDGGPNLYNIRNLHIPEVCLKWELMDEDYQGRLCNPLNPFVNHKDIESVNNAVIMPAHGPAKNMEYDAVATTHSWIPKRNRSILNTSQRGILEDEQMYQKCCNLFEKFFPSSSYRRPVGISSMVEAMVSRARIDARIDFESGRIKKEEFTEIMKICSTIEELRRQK
UniProt P15682: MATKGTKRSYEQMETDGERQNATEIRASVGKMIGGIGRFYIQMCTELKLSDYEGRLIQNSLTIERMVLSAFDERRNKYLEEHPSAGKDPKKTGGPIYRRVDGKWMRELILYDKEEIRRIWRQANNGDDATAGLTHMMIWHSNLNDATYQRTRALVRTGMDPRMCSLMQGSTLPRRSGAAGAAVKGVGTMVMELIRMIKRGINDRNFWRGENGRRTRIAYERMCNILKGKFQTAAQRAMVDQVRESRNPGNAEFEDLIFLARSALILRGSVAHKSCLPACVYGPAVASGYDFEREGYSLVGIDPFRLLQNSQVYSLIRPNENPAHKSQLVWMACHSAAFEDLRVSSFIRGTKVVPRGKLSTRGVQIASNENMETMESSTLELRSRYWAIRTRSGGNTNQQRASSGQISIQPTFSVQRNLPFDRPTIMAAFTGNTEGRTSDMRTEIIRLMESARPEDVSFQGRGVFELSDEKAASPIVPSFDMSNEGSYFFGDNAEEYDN

How the values were obtained:
[1] = biological target: PB2 in the in vitro GST pull-down with NP (data not shown) (influenza A virus (strain not stated)) (UniProt P03427); test: pull-down
[2] = biological target: PB1 in the in vitro GST pull-down with NP (data not shown) (influenza A virus (strain not stated)) (UniProt P03430); test: pull-down

NP in the in vitro GST pull-down (data not shown) (from UniProt P15682 1-498)
binding [1]: binds
binding [2]: binds
